Source: paper PMC8384837
Where a chain is given by its changes, count along the chain named. Some of the results follow. At the low end of the ranking the order means little.

biological target: T1, PUM1 PUF domain R2-VFQ R3-THE R4-TFR N899V + Y900F + C935T + R936H + Q939E + N971T + H972F + Q975R (UniProt Q14671); settings: yeast three-hybrid, YBZ-1, SC-Leu-His + 0.5 mM 3-AT, 4 days
T1 sequence: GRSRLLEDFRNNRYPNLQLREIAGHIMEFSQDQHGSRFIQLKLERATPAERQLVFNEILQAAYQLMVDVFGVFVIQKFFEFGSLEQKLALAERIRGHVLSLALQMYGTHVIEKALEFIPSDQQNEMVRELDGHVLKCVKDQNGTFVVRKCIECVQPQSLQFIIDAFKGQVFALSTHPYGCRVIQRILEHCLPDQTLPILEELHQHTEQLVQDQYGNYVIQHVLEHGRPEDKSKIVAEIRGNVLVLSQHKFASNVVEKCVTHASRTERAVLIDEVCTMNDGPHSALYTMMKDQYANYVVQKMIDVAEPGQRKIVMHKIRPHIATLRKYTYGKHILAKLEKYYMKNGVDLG

Sequence | binding signal (log2 enrichment (interaction score))
GGCUAGAACUAGUGGAUCCCCCGGCGCCCGGCGGCUCGAGCCCGGGUAAGUUGCUAUAGUCUGCAUGCCGCCGGGCGCCAUGCCUGCAGGUCGACUCUAGAAAACAUG | -5.65
GGCUAGAACUAGUGGAUCCCCCGGCGCCCGGCGGCUCGAGCCCGGGUAAGUGGACAGAGUCUGCAUGCCGCCGGGCGCCAUGCCUGCAGGUCGACUCUAGAAAACAUG | -5.15
GGCUAGAACUAGUGGAUCCCCCGGCGCCCGGCGGCUCGAGCCCGGGUAAGUGGUCGUAGUCUGCAUGCCGCCGGGCGCCAUGCCUGCAGGUCGACUCUAGAAAACAUG | -5.73
GGCUAGAACUAGUGGAUCCCCCGGCGCCCGGCGGCUCGAGCCCGGGUAAGUUAAAGACGUCUGCAUGCCGCCGGGCGCCAUGCCUGCAGGUCGACUCUAGAAAACAUG | < -5.59
GGCUAGAACUAGUGGAUCCCCCGGCGCCCGGCGGCUCGAGCCCGGGUAAGUUUAAAACGUCUGCAUGCCGCCGGGCGCCAUGCCUGCAGGUCGACUCUAGAAAACAUG | -3.83
GGCUAGAACUAGUGGAUCCCCCGGCGCCCGGCGGCUCGAGCCCGGGUAAGCAGAUAUAGUCUGCAUGCCGCCGGGCGCCAUGCCUGCAGGUCGACUCUAGAAAACAUG | -6.39
GGCUAGAACUAGUGGAUCCCCCGGCGCCCGGCGGCUCGAGCCCGGGUAAGGGAAGAUAGUCUGCAUGCCGCCGGGCGCCAUGCCUGCAGGUCGACUCUAGAAAACAUG | -5.22
GGCUAGAACUAGUGGAUCCCCCGGCGCCCGGCGGCUCGAGCCCGGGUAAGUGUAGGUAGUCUGCAUGCCGCCGGGCGCCAUGCCUGCAGGUCGACUCUAGAAAACAUG | -5.63
GGCUAGAACUAGUGGAUCCCCCGGCGCCCGGCGGCUCGAGCCCGGGUAAGGUGACUUGGUCUGCAUGCCGCCGGGCGCCAUGCCUGCAGGUCGACUCUAGAAAACAUG | < -5.46

biological target: T2, PUM1 PUF domain R3-THE R4-TFR C935T + R936H + Q939E + N971T + H972F + Q975R (UniProt Q14671); settings: yeast three-hybrid, YBZ-1, SC-Leu-His + 0.5 mM 3-AT, 4 days
T2 sequence: T1 sequence with V72N, F73Y

Sequence | binding signal (log2 enrichment (interaction score))
GGCUAGAACUAGUGGAUCCCCCGGCGCCCGGCGGCUCGAGCCCGGGUAAGCAUAAUUAGUCUGCAUGCCGCCGGGCGCCAUGCCUGCAGGUCGACUCUAGAAAACAUG | -8.03
GGCUAGAACUAGUGGAUCCCCCGGCGCCCGGCGGCUCGAGCCCGGGUAAGUGGUCGUAGUCUGCAUGCCGCCGGGCGCCAUGCCUGCAGGUCGACUCUAGAAAACAUG | -7.77
GGCUAGAACUAGUGGAUCCCCCGGCGCCCGGCGGCUCGAGCCCGGGUAAGUUGACAUUGUCUGCAUGCCGCCGGGCGCCAUGCCUGCAGGUCGACUCUAGAAAACAUG | < -7.64
GGCUAGAACUAGUGGAUCCCCCGGCGCCCGGCGGCUCGAGCCCGGGUAAGUUAACGGUGUCUGCAUGCCGCCGGGCGCCAUGCCUGCAGGUCGACUCUAGAAAACAUG | < -7.65
GGCUAGAACUAGUGGAUCCCCCGGCGCCCGGCGGCUCGAGCCCGGGUAAGGGAAGAUAGUCUGCAUGCCGCCGGGCGCCAUGCCUGCAGGUCGACUCUAGAAAACAUG | -8
